The supplement of paper PMC10849652
The list shows a part of the results.

By UniProt entry, the sequences of proteins in these tests, tags left out. Where a name states a change or a piece, a line headed by the entry shows the natural chain unless it says otherwise.
UniProt P42679: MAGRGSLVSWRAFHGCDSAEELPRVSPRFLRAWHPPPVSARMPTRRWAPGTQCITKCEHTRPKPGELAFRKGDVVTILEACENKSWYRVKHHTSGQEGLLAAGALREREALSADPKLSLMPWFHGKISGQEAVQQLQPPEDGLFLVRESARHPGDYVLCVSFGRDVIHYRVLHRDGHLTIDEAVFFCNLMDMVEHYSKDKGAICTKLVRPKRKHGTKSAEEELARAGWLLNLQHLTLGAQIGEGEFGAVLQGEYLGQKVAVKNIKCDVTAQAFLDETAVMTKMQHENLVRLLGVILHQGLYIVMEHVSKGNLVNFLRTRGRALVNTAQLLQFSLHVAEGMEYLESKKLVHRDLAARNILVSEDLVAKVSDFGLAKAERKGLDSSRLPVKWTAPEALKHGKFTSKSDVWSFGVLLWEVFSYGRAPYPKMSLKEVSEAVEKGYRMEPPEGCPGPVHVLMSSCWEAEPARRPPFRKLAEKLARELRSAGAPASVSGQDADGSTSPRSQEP
UniProt Q6NUT3: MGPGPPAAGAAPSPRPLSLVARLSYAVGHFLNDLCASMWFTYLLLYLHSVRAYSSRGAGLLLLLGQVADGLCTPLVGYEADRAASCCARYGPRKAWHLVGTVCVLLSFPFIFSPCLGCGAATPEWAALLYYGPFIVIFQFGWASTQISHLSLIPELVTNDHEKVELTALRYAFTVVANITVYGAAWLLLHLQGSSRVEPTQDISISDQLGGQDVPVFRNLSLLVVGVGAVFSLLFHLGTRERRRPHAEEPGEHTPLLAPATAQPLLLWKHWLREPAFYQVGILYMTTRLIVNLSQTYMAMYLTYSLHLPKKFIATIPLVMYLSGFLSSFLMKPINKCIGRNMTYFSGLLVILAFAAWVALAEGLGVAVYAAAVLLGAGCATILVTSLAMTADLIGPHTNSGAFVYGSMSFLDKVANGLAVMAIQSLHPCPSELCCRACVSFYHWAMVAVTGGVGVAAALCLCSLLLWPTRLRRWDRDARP
UniProt Q14680: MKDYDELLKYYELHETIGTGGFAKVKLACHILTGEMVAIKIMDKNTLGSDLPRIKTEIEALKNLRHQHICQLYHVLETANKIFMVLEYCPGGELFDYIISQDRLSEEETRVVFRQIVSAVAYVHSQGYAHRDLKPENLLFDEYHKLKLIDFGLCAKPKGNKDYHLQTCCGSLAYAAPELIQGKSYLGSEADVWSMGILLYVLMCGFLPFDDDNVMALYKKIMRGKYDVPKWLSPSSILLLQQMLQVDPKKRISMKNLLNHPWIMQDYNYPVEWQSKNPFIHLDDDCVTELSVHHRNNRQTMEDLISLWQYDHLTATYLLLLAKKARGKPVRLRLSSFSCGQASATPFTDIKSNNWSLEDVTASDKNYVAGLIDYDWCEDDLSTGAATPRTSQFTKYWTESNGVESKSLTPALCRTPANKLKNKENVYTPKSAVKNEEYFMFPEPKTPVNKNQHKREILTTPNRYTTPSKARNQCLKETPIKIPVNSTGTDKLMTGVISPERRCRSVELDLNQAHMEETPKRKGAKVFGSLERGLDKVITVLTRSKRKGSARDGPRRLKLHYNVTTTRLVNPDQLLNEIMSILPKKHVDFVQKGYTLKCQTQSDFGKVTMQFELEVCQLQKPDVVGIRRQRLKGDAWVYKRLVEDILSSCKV
UniProt Q9NWA0: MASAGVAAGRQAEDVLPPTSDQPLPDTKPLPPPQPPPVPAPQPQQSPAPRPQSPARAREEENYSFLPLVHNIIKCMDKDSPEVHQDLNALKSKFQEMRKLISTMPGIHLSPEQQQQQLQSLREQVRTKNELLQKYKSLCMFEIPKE
UniProt Q9H7H0: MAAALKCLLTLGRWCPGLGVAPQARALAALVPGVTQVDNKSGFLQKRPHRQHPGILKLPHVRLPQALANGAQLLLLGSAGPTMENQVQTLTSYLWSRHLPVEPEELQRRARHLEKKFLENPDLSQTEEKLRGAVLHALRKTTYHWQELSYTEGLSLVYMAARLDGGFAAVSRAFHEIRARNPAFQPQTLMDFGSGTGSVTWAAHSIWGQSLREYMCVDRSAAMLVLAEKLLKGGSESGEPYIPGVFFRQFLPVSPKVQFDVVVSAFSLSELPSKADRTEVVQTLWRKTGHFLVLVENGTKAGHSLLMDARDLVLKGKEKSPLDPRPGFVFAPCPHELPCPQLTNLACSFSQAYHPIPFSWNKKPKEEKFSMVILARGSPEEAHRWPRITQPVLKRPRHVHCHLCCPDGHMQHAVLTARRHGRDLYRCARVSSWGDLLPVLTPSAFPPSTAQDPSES
UniProt A1L020: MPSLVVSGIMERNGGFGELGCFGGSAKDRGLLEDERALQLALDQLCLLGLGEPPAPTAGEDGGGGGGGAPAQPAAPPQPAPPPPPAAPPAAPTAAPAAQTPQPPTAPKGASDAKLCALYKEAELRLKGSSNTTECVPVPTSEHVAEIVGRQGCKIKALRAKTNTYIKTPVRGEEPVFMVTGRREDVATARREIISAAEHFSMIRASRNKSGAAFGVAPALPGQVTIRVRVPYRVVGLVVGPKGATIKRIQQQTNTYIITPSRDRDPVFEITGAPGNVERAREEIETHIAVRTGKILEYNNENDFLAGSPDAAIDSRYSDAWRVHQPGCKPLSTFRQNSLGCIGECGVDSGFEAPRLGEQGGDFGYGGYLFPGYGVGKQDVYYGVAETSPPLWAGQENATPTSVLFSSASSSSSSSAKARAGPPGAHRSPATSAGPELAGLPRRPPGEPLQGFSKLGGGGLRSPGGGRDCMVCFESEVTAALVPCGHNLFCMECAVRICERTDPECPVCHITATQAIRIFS
UniProt P21741: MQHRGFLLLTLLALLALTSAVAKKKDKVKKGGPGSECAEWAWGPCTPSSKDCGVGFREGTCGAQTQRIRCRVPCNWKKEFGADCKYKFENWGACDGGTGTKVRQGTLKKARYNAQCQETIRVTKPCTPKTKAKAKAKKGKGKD
UniProt Q5SR56: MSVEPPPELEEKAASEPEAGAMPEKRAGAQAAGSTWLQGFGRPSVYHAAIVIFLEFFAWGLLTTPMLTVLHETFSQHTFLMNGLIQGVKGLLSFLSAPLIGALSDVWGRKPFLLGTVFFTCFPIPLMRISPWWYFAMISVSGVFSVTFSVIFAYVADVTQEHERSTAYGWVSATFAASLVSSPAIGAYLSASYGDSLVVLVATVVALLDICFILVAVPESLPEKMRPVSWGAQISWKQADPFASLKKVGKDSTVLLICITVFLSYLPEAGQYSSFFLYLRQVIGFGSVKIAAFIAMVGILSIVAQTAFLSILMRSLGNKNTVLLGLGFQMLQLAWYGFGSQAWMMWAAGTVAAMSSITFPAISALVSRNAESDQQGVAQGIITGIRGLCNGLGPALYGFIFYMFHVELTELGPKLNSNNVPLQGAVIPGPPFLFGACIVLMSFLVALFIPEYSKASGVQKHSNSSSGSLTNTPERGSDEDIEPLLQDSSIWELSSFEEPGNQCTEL
UniProt Q86XA0: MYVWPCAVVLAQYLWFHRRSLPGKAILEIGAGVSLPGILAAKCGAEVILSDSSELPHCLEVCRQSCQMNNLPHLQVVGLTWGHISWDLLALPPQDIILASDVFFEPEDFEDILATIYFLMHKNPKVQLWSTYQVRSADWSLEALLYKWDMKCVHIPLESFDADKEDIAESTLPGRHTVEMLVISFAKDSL
UniProt Q9H204: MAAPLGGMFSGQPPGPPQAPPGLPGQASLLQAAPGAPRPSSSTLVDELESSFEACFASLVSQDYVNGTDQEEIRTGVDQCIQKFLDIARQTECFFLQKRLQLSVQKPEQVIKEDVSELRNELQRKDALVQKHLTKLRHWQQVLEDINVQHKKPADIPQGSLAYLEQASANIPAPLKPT
UniProt O00255, whole entry, looked up: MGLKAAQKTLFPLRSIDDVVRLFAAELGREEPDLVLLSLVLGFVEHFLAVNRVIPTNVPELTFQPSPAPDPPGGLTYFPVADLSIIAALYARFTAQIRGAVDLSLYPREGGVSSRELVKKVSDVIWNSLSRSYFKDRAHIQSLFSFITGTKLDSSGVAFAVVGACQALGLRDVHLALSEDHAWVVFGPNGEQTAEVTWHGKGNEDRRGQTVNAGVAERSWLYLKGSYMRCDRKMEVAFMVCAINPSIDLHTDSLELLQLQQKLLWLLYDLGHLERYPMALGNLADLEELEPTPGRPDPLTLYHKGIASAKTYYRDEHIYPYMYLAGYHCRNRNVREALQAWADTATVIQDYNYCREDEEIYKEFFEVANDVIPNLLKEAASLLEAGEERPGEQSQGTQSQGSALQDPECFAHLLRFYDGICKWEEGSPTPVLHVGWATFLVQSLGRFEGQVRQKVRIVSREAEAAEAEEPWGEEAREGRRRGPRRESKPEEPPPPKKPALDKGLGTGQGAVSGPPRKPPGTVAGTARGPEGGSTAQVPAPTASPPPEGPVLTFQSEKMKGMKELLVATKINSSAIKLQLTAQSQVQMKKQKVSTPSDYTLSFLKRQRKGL
UniProt P50579: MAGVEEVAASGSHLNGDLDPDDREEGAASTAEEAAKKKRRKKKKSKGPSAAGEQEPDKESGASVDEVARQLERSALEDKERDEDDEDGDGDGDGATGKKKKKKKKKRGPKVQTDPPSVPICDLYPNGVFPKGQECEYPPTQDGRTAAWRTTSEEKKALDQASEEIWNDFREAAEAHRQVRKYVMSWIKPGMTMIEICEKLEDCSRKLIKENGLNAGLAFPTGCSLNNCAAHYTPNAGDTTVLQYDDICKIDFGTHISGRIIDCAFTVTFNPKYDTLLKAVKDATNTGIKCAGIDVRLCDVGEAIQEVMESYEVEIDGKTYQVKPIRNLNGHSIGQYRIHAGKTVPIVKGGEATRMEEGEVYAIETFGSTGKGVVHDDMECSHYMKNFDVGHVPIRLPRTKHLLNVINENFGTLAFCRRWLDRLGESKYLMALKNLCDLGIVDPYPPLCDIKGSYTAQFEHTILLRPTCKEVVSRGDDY
UniProt Q8N635: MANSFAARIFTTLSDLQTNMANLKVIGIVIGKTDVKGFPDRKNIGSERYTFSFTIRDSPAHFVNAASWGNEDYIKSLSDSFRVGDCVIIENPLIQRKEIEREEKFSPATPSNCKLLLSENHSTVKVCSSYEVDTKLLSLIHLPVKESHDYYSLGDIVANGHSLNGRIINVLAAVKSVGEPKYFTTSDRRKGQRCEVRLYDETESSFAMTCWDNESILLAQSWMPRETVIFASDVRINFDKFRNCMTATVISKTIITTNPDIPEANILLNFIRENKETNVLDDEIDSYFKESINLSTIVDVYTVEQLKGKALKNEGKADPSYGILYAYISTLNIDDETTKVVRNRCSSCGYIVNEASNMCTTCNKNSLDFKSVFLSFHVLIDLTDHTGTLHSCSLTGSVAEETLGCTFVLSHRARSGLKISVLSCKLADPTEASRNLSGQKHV
UniProt O95243: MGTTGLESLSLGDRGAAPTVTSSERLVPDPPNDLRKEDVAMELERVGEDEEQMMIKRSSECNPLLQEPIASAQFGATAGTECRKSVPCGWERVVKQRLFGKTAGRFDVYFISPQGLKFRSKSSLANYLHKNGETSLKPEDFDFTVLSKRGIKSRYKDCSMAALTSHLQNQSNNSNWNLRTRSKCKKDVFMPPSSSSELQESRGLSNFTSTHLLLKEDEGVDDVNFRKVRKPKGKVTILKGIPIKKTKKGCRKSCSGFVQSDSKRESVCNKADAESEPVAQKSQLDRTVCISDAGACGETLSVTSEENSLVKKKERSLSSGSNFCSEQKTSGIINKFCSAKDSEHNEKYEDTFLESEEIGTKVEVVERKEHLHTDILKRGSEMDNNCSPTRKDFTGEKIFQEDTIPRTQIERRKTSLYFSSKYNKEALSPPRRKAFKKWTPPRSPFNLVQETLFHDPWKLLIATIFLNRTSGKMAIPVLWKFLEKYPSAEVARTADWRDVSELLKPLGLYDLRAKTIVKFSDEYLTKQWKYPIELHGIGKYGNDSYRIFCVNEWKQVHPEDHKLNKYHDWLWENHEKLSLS
UniProt Q5U5Q3: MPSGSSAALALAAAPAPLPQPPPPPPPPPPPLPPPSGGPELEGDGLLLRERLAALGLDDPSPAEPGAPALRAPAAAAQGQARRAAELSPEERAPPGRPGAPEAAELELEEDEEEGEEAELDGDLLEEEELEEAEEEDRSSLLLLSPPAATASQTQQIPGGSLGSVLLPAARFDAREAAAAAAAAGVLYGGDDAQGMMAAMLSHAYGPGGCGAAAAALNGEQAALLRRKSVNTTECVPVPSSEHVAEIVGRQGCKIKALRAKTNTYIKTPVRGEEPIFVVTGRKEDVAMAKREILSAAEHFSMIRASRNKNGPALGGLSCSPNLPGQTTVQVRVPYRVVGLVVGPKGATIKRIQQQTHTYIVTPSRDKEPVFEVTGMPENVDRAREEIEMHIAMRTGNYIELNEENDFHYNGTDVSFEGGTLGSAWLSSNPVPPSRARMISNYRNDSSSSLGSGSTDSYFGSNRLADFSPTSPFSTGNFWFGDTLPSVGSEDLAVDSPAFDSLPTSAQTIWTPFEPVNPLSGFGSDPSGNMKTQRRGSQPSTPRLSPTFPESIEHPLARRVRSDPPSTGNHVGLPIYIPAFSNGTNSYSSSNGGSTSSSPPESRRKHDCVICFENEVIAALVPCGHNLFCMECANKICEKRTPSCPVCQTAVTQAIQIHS

Compound: CC1=C(C(CC(=O)N1)C2=CC=C(C=C2)C(F)(F)F)C(=O)NC3=C(C=C4C(=C3)C=NN4)F
Assay: log2 fold change, soluble protein after heating vs DMSO (PISA); higher = thermal stabilisation; K562 lysate, 10 uM; active = over 0.2 and 3.5 SD of the protein, either way, in both replicates (recomputed)
How it was run: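 Soluble protein was defined as the supernatant remaining after 21,000xg for 90 min, following pooling of heated aliquots and adjustment to 0.5% NP-40 at 4°C. Before that, crude K562 extract at 1 mg/mL protein in PBS pH 7.4 with 1 mM MgCl2 was treated with 10 μM compound for 30 min and heated for 3 min across 48°C-58°C. Quantification used TMTpro 16plex LC-MS/MS with channel sums equalised, and values are log-two fold changes in thermal stability relative to solvent controls from duplicates.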

Row | Target | log2 fold change
1 | MATK isoform 2 (UniProt P42679) | inactive: 0.102
2 | MFSD12 isoform 3 (UniProt Q6NUT3) | inactive: 0.221
3 | MELK (UniProt Q14680) | inactive: 0.063
4 | MED9 (UniProt Q9NWA0) | inactive: -0.051
5 | MED24 (UniProt F5H5K2) | inactive: 0.237
6 | METTL17 isoform 3 (UniProt Q9H7H0) | inactive: -0.027
7 | MEF2C isoform 2 (UniProt Q06413) | inactive: -0.049
8 | MEX3A (UniProt A1L020) | inactive: -0.076
9 | MDK (UniProt P21741) | inactive: 0.024
10 | MFSD14B (UniProt Q5SR56) | inactive: -0.125
11 | MDM1 (UniProt Q8TC05) | inactive: -0.027
12 | METTL23 (UniProt Q86XA0) | inactive: 0.081
13 | MED28 (UniProt Q9H204) | inactive: -0.088
14 | MEN1 (UniProt O00255) | inactive: -0.098
15 | METAP2 isoform 2 (UniProt P50579) | inactive: 0.032
16 | MEIOB isoform 2 (UniProt Q8N635) | inactive: 0.088
17 | MBD4 (UniProt O95243) | inactive: -0.034
18 | METTL15 (UniProt A6NJ78) | inactive: -0.079
19 | MEX3C (UniProt Q5U5Q3) | inactive: -0.037

Exported in markdown: entries from further up

| Row | Target | log2 fold change |
| --- | --- | --- |
| 12 | METTL23 (UniProt Q86XA0) | inactive: 0.081 |
| 13 | MED28 (UniProt Q9H204) | inactive: -0.088 |
